Record: PubChem BioAssay AID743121 (NCATS, 2013)
The whole screen tested about 26,000 reagents; below is a random part of them. In the full data, 167 (0.63%) got an active call. 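Calls are per gene from RSA p-values that are not deposited; an individual active-marked siRNA can sensitise only weakly.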 The numbers tell different reagents against one gene apart. Further read-outs or replicates are left out here. Reagent sequences are not shown.

Purpose: 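Knock-downs that sensitise breast cancer cells to camptothecin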 (primary screen)
System: MDA-MB-231 cells, a human breast cancer line
Knock-down reagent: single siRNA against human genes, 20 nM siRNA (0.8 pmol per well)
Duration: 120 h (drug added 48 h after transfection, read 72 h later)
Conditions: camptothecin 20 nM (about EC30) for 72 h; vehicle 0.1% DMSO in parallel plates
Read-out: 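CellTiter-Glo ATP signal, scaled to control siRNA as percent viability; sensitisation given as log2 of untreated divided by camptothecin-treated viability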
Reading the numbers: log2 vehicle/camptothecin viability: higher = stronger sensitisation to camptothecin
Hit rule: 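Active genes have an RSA gene-level p-value below 0.001, computed from the ratios of their separate siRNAs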

The opening 6 entries, ahead of the listing:
Target gene | reagent no. | log2 vehicle/camptothecin viability | Outcome
PYGL (GeneID 5836) | 1 | -0.543 | inactive
PYGL (GeneID 5836) | 2 | -0.317 | inactive
PYGL (GeneID 5836) | 3 | -0.442 | inactive
PYGL (GeneID 5836) | 4 | -0.0485 | inactive
YWHAG (GeneID 7532) | 1 | -0.131 | inactive
YWHAG (GeneID 7532) | 2 | -0.186 | inactive

The list itself, from the start:
Target gene | reagent no. | log2 vehicle/camptothecin viability | Outcome
PYGL (GeneID 5836) | 1 | -0.543 | inactive
PYGL (GeneID 5836) | 2 | -0.317 | inactive
PYGL (GeneID 5836) | 3 | -0.442 | inactive
PYGL (GeneID 5836) | 4 | -0.0485 | inactive
YWHAG (GeneID 7532) | 1 | -0.131 | inactive
YWHAG (GeneID 7532) | 2 | -0.186 | inactive
YWHAG (GeneID 7532) | 3 | 0.0684 | inactive
YWHAG (GeneID 7532) | 4 | -0.503 | inactive
CD27 (GeneID 939) | 1 | -0.16 | inactive
CD27 (GeneID 939) | 2 | 0.574 | inactive
CD27 (GeneID 939) | 3 | 0.415 | inactive
CD27 (GeneID 939) | 4 | -0.26 | inactive
PEX2 (GeneID 5828) | 1 | -0.194 | inactive
PEX2 (GeneID 5828) | 2 | 0.118 | inactive
PEX2 (GeneID 5828) | 3 | -0.505 | inactive
NSMAF (GeneID 8439) | 1 | -0.131 | inactive
NSMAF (GeneID 8439) | 2 | -0.173 | inactive
NSMAF (GeneID 8439) | 3 | -0.203 | inactive
NSMAF (GeneID 8439) | 4 | -0.0668 | inactive
NR1H4 (GeneID 9971) | 1 | -0.283 | inactive
NR1H4 (GeneID 9971) | 2 | -0.124 | inactive
NR1H4 (GeneID 9971) | 3 | 0.0673 | inactive
NR1H4 (GeneID 9971) | 4 | -0.179 | inactive
TAT (GeneID 6898) | 1 | -0.204 | inactive
TAT (GeneID 6898) | 2 | -0.458 | inactive
TAT (GeneID 6898) | 3 | -0.2 | inactive
TAT (GeneID 6898) | 4 | -0.324 | inactive
NIM1K (GeneID 167359) | 1 | -0.307 | inactive
NIM1K (GeneID 167359) | 2 | -0.273 | inactive
NIM1K (GeneID 167359) | 3 | -0.0791 | inactive
SMAD2 (GeneID 4087) | 1 | -0.292 | inactive
SMAD2 (GeneID 4087) | 2 | -0.302 | inactive
SMAD2 (GeneID 4087) | 3 | -0.213 | inactive
SMAD2 (GeneID 4087) | 4 | -0.245 | inactive
TFRC (GeneID 7037) | 1 | -0.489 | inactive
TFRC (GeneID 7037) | 2 | -0.39 | inactive
TFRC (GeneID 7037) | 3 | -0.452 | inactive
TFRC (GeneID 7037) | 4 | -0.452 | inactive
TFRC (GeneID 7037) | 5 | -0.314 | inactive
TFRC (GeneID 7037) | 6 | -0.254 | inactive
OR8D1 (GeneID 283159) | 1 | 0.078 | inactive
OR8D1 (GeneID 283159) | 2 | -0.173 | inactive
OR8D1 (GeneID 283159) | 3 | 0.333 | inactive
OR8D1 (GeneID 283159) | 4 | 0.0587 | inactive
SERPINA5 (GeneID 5104) | 1 | -0.277 | inactive
SERPINA5 (GeneID 5104) | 2 | -0.38 | inactive
SERPINA5 (GeneID 5104) | 3 | 0.0153 | inactive
SERPINA5 (GeneID 5104) | 4 | -0.289 | inactive
MLLT6 (GeneID 4302) | 1 | -0.311 | inactive
MLLT6 (GeneID 4302) | 2 | -0.211 | inactive
MLLT6 (GeneID 4302) | 3 | -0.469 | inactive
MLLT6 (GeneID 4302) | 4 | 0.168 | inactive
ING5 (GeneID 84289) | 1 | -0.0377 | inactive
ING5 (GeneID 84289) | 2 | 1.01 | inactive
ING5 (GeneID 84289) | 3 | -0.564 | inactive
MPP7 (GeneID 143098) | 1 | -0.269 | inactive
MPP7 (GeneID 143098) | 2 | -0.00623 | inactive
MPP7 (GeneID 143098) | 3 | -0.3 | inactive
MPP7 (GeneID 143098) | 4 | 0.043 | inactive
MMP14 (GeneID 4323) | 1 | 0.142 | inactive
MMP14 (GeneID 4323) | 2 | -0.168 | inactive
MMP14 (GeneID 4323) | 3 | 0.00561 | inactive
MMP14 (GeneID 4323) | 4 | 0.05 | inactive
OR51E1 (GeneID 143503) | 1 | -0.315 | inactive
OR51E1 (GeneID 143503) | 2 | 0.0796 | inactive
OR51E1 (GeneID 143503) | 3 | -0.0934 | inactive
OR51E1 (GeneID 143503) | 4 | -0.634 | inactive
MAP3K10 (GeneID 4294) | 1 | 0.556 | inactive
MAP3K10 (GeneID 4294) | 2 | -0.2 | inactive
MAP3K10 (GeneID 4294) | 3 | -0.121 | inactive
MAP3K10 (GeneID 4294) | 4 | -0.456 | inactive
AKR1A1 (GeneID 10327) | 1 | -0.31 | inactive
AKR1A1 (GeneID 10327) | 2 | -0.197 | inactive
AKR1A1 (GeneID 10327) | 3 | -0.674 | inactive
AKR1A1 (GeneID 10327) | 4 | -0.596 | inactive
MAPK11 (GeneID 5600) | 1 | -0.399 | inactive
MAPK11 (GeneID 5600) | 2 | -0.776 | inactive
MAPK11 (GeneID 5600) | 3 | -0.358 | inactive
MAPK11 (GeneID 5600) | 4 | -0.359 | inactive
SSTR1 (GeneID 6751) | 1 | -0.177 | inactive
SSTR1 (GeneID 6751) | 2 | -0.178 | inactive
SSTR1 (GeneID 6751) | 3 | -0.144 | inactive
SSTR1 (GeneID 6751) | 4 | -0.584 | inactive
EDAR (GeneID 10913) | 1 | -0.333 | inactive
EDAR (GeneID 10913) | 2 | -0.268 | inactive
EDAR (GeneID 10913) | 3 | -0.28 | inactive
EDAR (GeneID 10913) | 4 | -0.417 | inactive
